Assay results: US20160219829A1, “ANTI-ODOR MATERIAL FOR ANIMAL LITTERS USING PHOSPHOR[…] POWDER FORM” (priority 2013, published 2016)

Test: Dosimetry of n-BTPT samples without contact with urea solution (ammonia naturally released by n-BTPT)
Conditions: Table 12, no urea solution

Q: For `CCCCNP(N)(N)=S` [n-BTPT, N-(n-butyl)thiophosphoric triamide], which “Urea/Urease dosimetry (ammonia release without urea)” value (final pure n-BTPT equivalent 0.023%) is on record?
A: The value was 15 ppm.

Q: What about the “Urea/Urease dosimetry (ammonia release without urea)” value (final pure n-BTPT equivalent 0.035%) of the same compound?
A: The value was 12 ppm.

Q: And the “Urea/Urease dosimetry (ammonia release without urea)” value (final pure n-BTPT equivalent 0.050%)?
A: The value was 20 ppm.
